Substitutions are numbered along the chain they refer to. Results are given in words; binding and its absence hold for the method and conditions named. For some of these results: Binding seen in cells or lysates may run through a third protein. Some results given as binding are weak or reduced against the parent protein; the word gives no strength. Sequences can lack the tags named with a protein.
What was measured:
GFP:Repo-Man^IRCE mutant [1] = target: T1, GFP:Repo-Man^IRCE mutant (UniProt Q69YH5); test: pull-down; GFP-Repo-Man constructs pulled down from transfected HeLa lysate on GFP-TRAP beads (with 20 mM NEM, washed three times), then incubated with purified recombinant His-lamin A in PBS for 2 h at 4°C, washed three times with cold PBS; western blot of unbound and bound fractions with anti-GFP and lamin A antibodies; both purified
T1 sequence: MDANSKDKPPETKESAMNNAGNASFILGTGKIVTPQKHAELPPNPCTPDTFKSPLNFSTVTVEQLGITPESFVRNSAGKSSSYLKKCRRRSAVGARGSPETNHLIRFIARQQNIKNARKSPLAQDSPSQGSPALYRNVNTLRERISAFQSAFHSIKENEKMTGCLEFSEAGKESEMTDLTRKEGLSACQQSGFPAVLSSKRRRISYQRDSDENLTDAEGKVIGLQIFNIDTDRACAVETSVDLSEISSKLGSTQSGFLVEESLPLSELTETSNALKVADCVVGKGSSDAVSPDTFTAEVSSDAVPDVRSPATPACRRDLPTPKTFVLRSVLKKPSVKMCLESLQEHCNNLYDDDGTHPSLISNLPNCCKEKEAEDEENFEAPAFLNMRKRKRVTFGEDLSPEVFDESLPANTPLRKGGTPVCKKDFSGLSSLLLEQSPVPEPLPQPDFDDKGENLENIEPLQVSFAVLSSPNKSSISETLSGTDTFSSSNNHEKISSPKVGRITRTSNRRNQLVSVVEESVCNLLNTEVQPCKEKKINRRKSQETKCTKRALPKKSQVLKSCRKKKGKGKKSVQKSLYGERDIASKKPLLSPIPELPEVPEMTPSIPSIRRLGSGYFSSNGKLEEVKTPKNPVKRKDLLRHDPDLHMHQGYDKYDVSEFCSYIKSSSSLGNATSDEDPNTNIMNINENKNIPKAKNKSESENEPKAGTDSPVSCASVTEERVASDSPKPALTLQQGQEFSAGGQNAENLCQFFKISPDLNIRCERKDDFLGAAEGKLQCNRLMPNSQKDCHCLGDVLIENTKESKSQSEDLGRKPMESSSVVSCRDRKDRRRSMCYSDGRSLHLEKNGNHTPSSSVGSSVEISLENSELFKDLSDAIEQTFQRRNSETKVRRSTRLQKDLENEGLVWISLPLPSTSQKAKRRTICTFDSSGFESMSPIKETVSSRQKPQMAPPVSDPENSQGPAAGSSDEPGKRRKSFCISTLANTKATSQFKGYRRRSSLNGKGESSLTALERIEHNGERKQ

Sequences of proteins named here, by UniProt entry; tags and fusion partners are left off. Residues count along the entry.
UniProt P02545, residues 1-646: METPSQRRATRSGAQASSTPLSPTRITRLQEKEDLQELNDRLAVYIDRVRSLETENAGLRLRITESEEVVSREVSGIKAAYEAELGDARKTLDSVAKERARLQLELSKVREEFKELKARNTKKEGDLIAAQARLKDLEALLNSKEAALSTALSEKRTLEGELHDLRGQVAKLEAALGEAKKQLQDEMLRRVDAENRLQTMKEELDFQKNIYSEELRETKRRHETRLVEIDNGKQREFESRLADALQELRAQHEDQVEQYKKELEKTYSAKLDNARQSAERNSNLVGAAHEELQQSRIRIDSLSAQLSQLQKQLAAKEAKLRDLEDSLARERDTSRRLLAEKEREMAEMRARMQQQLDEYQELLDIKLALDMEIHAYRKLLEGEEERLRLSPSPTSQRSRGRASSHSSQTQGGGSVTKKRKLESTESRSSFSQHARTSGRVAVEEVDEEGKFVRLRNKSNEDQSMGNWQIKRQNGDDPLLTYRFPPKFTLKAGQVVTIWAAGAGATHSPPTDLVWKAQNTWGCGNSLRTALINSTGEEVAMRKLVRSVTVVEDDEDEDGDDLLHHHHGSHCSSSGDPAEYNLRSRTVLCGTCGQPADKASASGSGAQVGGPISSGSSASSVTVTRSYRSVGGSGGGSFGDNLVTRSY

GFP:Repo-Man^wt [2] = target: T2, GFP:Repo-Man^wt (UniProt Q69YH5); test: as above
T2 sequence: T1 sequence with R762K

GFP:Repo-Man^IRCE mutant [3] = target: T1, GFP:Repo-Man^IRCE mutant; test: proximity ligation; Duolink PLA in fixed HeLa cells transfected with GFP:Repo-Man wt or IRCE; primary antibodies anti-GFP (mouse) and anti-lamin A/C S22ph (rabbit); PLA signals counted
GFP:Repo-Man^wt [4] = target: T2, GFP:Repo-Man^wt; test: as above

| binding (GFP:Repo-Man^IRCE mutant [1]) | binding (GFP:Repo-Man^wt [2]) | binding (GFP:Repo-Man^IRCE mutant [3]) | binding (GFP:Repo-Man^wt [4]) | Substance |
| --- | --- | --- | --- | --- |
| binds | binds |  |  | recombinant human lamin A protein (His-lamin A) (from UniProt P02545 1-646) |
|  |  | binds | binds | lamin A S22ph (endogenous, HeLa) (from UniProt P02545 1-646) |

Source: article PMC9006038
